Measured values taken from patent US20140357578.

Sequences of proteins named here, by UniProt entry; tags and fusion partners are left off. Residues count along the entry.
UniProt P19338, 2-710: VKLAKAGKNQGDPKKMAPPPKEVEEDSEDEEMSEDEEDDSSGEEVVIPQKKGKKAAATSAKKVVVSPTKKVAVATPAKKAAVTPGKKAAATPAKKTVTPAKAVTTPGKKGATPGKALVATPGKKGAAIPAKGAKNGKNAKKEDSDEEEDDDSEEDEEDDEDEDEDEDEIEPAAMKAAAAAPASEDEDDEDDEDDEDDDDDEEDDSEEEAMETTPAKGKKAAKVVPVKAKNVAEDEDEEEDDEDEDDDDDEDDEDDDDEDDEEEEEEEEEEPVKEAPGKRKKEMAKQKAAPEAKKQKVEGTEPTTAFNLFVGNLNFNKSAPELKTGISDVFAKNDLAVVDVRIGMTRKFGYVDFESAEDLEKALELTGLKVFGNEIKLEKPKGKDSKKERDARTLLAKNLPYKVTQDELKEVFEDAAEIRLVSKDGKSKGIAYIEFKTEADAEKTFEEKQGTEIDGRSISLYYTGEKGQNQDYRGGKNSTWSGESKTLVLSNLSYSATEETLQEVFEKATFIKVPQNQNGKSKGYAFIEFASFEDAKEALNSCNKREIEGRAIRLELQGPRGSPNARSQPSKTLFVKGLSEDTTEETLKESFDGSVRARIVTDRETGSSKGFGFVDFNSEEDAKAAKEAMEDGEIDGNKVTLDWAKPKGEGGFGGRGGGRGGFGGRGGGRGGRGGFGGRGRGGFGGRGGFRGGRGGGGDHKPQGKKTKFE
UniProt P19338, whole entry: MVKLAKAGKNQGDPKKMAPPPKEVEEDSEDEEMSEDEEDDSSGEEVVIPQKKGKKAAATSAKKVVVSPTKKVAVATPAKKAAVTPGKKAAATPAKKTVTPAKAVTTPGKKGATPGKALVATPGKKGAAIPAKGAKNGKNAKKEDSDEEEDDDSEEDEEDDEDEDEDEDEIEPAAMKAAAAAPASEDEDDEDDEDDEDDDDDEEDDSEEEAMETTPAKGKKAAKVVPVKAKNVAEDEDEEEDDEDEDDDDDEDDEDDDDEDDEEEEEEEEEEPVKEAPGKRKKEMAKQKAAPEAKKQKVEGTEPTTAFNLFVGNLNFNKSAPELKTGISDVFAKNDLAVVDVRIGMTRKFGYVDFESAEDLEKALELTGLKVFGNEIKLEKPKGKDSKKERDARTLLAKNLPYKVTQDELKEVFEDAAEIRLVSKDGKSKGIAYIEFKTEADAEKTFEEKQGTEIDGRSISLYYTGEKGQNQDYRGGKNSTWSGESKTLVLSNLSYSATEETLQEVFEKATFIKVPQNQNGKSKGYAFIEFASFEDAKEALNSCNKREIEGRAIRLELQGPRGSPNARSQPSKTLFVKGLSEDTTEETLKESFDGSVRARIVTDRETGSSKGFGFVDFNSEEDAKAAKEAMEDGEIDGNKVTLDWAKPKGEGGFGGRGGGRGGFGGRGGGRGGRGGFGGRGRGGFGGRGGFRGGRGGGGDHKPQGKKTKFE

Assays:
[1] = target: Nucleolin (NCL), endogenous (UniProt P19338); experiment: pull-down; conditions: protein in an extract
[2] = target: Nucleolin (NCL), GST fusion (UniProt P19338); experiment: pull-down; conditions: purified recombinant protein, protein details: GST fusion, Abnova H00004691-P01

## CAGCAGCAGCAGCAGCAGCAGCAGCAGCAGCAGCAGCAGCAGCAGCAGCAGCAGCAGCAGCAGCAGCAGCAGCAGCAGCAG [MJDCAG27 RNA (cellular transcript)]
[1]; RNA immunoprecipitation, unexpanded control, variant of MJDCAG78 RNA (cellular transcript)
  binding result: no binding

## CUGCUGCUGCUGCUGCUGCUGCUGCUGCUGCUGCUGCUGCUGCUGCUGCUGCUGCUGCUGCUGCUGCUGCUGCUGCUGCUGCUGCUGCUGCUGCUGCUGCUGCUGCUGCUGCUGCUGCUGCUGCUGCUGCUGCUGCUGCUGCUGCUGCUGCUGCUGCUGCUGCUGCUGCUGCUGCUGCUGCUGCUGCUGCUGCUGCUGCUGCUGCUGCUGCUGCUGCUGCUGCUGCUGCUGCUG [CUG78 RNA (in vitro transcribed)]
[2]; same buffer as CAG78
  binding result: no binding

## CAGCAGCAGCAGCAGCAGCAGCAGCAGCAGCAGCAGCAGCAGCAGCAGCAGCAGCAGCAGCAGCAGCAGCAGCAGCAGCAGCAGCAGCAGCAGCAGCAGCAGCAGCAGCAGCAGCAGCAGCAGCAGCAGCAGCAGCAGCAGCAGCAGCAGCAGCAGCAGCAGCAGCAGCAGCAGCAGCAGCAGCAGCAGCAGCAGCAGCAGCAGCAGCAGCAGCAGCAGCAGCAGCAGCAGCAG [MJDCAG78 RNA (cellular transcript)]
[1]; RNA immunoprecipitation from cell lysate, 5 mM MgCl2, 4 C
  binding result: binds

## CAGCAGCAGCAGCAGCAGCAGCAGCAGCAGCAGCAGCAGCAGCAGCAGCAGCAGCAGCAGCAGCAGCAGCAGCAGCAGCAGCAGCAGCAGCAGCAGCAGCAGCAGCAGCAGCAGCAGCAGCAGCAGCAGCAGCAGCAGCAGCAGCAGCAGCAGCAGCAGCAGCAGCAGCAGCAGCAGCAGCAGCAGCAGCAGCAGCAGCAGCAGCAGCAGCAGCAGCAGCAGCAGCAGCAGCAG [CAG78 RNA (in vitro transcribed from MJDCAG78 PCR product)]
[2]; 20 mM Hepes pH 7.4, 150 mM NaCl, 5 mM MgCl2, 0.5% NP-40, yeast tRNA, 4 C, RT-PCR
  binding result: binds

The exact form of at least one protein or probe is not confirmed. A negative result means that nothing was seen under these conditions. For some of these results: Results from cells or extracts need not show a direct contact.
